Consider two substances from paper PMC5607612.

Amino acid sequences for entries named in this document (tags omitted).
UniProt Q9R1C8: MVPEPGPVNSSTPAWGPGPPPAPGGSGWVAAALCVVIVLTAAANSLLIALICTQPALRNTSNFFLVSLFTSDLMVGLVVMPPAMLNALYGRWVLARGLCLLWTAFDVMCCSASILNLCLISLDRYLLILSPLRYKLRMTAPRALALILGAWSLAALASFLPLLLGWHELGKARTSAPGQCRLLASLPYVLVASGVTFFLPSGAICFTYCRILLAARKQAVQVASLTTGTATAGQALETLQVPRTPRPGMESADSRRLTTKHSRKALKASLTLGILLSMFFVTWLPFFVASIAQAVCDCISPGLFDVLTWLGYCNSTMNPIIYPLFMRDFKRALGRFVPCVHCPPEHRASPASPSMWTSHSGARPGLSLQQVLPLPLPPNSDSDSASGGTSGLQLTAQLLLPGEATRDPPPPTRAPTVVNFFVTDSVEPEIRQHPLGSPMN
UniProt Q640N2: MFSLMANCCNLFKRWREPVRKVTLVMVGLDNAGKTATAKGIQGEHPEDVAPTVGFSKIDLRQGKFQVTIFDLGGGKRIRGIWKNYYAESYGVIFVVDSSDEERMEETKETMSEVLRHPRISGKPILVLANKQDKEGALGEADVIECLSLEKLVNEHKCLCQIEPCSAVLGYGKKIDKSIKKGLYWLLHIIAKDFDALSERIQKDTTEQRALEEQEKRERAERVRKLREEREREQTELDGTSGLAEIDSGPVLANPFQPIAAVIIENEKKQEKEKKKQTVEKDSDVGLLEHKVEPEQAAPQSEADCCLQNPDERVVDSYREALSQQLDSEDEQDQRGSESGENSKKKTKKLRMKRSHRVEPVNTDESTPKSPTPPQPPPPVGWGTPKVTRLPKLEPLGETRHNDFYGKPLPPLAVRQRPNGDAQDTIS

In assay [1] the target is Serotonin 6 receptor (5-HT6) (mouse) (UniProt Q9R1C8). The experiment in a line: co-IP; HEK293T cells transfected for 48 hours, RIPA lysis buffer; lysate incubated with protein A + G agarose beads and antibodies (anti-ARL13B or anti-5-HT6) overnight, washed three times with PBS, western blot; both directions.
Assay [2] concerns the target ADP-ribosylation factor-like protein 13B (ARL13B) (mouse) (UniProt Q640N2). Described as above.

Results are given in words; binding and its absence hold for the method and conditions named. Binding seen in cells or lysates may run through a third protein. Some results given as binding are weak or reduced against the parent protein; the word gives no strength.

Regarding “ADP-ribosylation factor-like protein 13B (ARL13B) (from UniProt Q640N2 1-427)”, the binding result in assay [1] is “binds”. In the case of “Serotonin 6 receptor (5-HT6) (from UniProt Q9R1C8 1-440)”, the binding entry in assay [2] is “binds”.
